Screening data, single-dose tests

Chains of the proteins cited; added tags and fusions are not shown. Residues count along the entry.
UniProt P9WFT3, whole entry: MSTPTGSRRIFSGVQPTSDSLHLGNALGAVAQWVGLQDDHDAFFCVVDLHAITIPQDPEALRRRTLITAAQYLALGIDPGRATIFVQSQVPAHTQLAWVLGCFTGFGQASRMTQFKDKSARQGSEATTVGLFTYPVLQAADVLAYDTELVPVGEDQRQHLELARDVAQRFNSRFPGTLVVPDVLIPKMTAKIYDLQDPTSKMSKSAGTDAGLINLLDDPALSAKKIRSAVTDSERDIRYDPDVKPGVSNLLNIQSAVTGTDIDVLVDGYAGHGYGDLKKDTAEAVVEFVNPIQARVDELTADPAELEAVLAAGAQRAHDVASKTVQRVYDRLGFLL
UniProt Q4DA54, 1-478: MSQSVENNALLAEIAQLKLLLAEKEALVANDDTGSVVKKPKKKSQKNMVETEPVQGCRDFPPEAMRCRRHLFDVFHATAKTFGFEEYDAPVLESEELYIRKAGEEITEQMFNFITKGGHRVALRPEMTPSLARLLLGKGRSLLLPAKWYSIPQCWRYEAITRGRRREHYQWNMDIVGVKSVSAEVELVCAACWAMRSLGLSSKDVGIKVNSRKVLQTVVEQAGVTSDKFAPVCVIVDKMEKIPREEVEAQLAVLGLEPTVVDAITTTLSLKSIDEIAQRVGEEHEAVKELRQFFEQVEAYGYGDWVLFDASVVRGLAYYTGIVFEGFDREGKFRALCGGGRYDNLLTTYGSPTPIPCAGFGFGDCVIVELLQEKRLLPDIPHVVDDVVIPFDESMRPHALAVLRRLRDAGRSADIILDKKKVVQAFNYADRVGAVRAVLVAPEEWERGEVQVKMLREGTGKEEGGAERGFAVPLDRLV

Data taken from ChEMBL document CHEMBL3988442, “University of Dundee, Small-Polar-MMV Screening Library” (2021).

MtTrpRS: 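Tryptophan-tRNA ligase, Mycobacterium tuberculosis (UniProt P9WFT3). Enzyme assay of tryptophanyl-tRNA synthetase; the read-out is not stated. Compounds at 10 µM. Direction is not recorded; retested compounds ran higher, which suggests that high means inhibition. Of about 65,000 compounds tested this way, about 64 (0.098%) reached 50% or more in at least one test.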
Leishmania in macrophages: 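Cell assay of Leishmania donovani living inside macrophages; the read-out is not stated. Tested at 30 µM. Higher reads as stronger inhibition (inferred: compounds with an IC50 in retests scored well above the rest). Size under these conditions: about 69,000 compounds, about 1,000 of them at 50% or above in at least one test.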
TcHisRS: 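Histidine-tRNA ligase, Trypanosoma cruzi CL Brener (UniProt Q4DA54). Enzyme assay of histidyl-tRNA synthetase; the read-out is not stated. Tested at 30 µM. The record gives no direction; compounds that gave an IC50 in retests scored well above the rest, so higher reads as stronger inhibition. Size under these conditions: about 69,000 compounds, about 31 of them at 50% or above in at least one test.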

Each number is a percent effect as filed.
How 0% and 100% were set is not recorded. Most values in the screen are low, and negative values occur.
This is an unselected part of the compounds tested.
Two or more numbers in one place are separate tests of the same structure; such repeats can differ widely.
A dash means the value is not listed here; it may have been measured.

Compound	MtTrpRS	Leishmania in macrophages	TcHisRS
CCN(C)C[C@@H]1CN(S(=O)(=O)c2ccc(OC)cc2)C[C@@H]1CO	6.101%	-7.418%	5.202%
NC(=O)c1ccc(C2CCCN2C(=O)Cn2nc3ccccc3n2)s1 (stereo not given)	-2.853%	6.014%	3.509%
Cc1ccc(C)c2c(O)cc(CN3CCNC(=O)C3C)nc12 (stereo not given)	-1.417%	14.37%	3.03%
CC(c1cc(F)ccc1F)N(C)CCS(=O)(=O)CCC(N)=O (stereo not given)	-8.676%	15.72%	5.747%
O=C(NCc1ccccn1)NC1CCCN(c2ncccn2)C1 (stereo not given)	2.803%	6.365%	-3.333%
CCO[C@@H]1CC[C@H]2[C@H]1OCCN2C(=O)c1ccc(OC)c(F)c1	-2.05%	-	1.266%
O=S1(=O)NC2(CCCN(CCc3ccccc3)C2)COc2ccccc21 (stereo not given)	-1.469%	-9.593%	6.509%
COc1cc(NC(=O)c2ccc(CN3CC[C@H](O)C3)cc2)cc(OC)c1	-22.05%	-2.616%	5.128%
CC(C)NC(=O)N1CCN(CC2CC2)CC2(CNC(=O)C2)C1 (stereo not given)	0.2766%	-	6.098%
O=C(Nc1cn[nH]c1)c1ccncc1	-1.82%	21.42%	4.734%
Cc1cccc(S(=O)(=O)NC2CCN(CC(F)(F)F)C2)c1 (stereo not given)	13.14%	34.34%	11.52%
OC[C@@H](O)CN(CCC(F)(F)F)c1ncccn1	-7.385%	17.17%	4.202%
CC(C)[C@H]1CN(Cc2ccccn2)C[C@@H]1NC(=O)CC1CCC1	-1.31%	31.83%	2.762%
N#Cc1cccc(CNc2ccc(F)cc2OCCO)c1	0.3137%	3.561%	11.6%
CS(=O)(=O)CCC(=O)N1C[C@@H]2CC[C@H](C1)N(Cc1ccccn1)C2=O	10.99%	-	-1.163%
CN(Cc1cccnc1)C1CC2(CCN(c3ncccn3)CC2)C1	0.8292%	-	3.365%
Cc1ccc(N2CCCC(N(C)Cc3cc(C)on3)C2)nn1 (stereo not given)	-4.897%	20.73%	10.34%
CCN1C(=O)C2(CCOCC2)c2cc(NC(=O)c3cnccn3)ccc21	3.614%	9.937%	5.941%
Cc1cc(C)n(CC(=O)N2CCC(Nc3cccnn3)CC2)n1	-8.216%	-13.53%	0%
CN(C)CCOC[C@H]1CC[C@H]2[C@H](CCN2C(=O)c2ccoc2)O1	-0.6875%	-	17.65%
COc1cc(Cl)c(NCc2c(C)noc2C)cc1OC	-4.644%	14.57%	4.972%
CC(C(=O)NC(N)=O)N1CCN(c2ccc(C#N)cc2F)CC1 (stereo not given)	3.267%	-7.88%	12.02%
Cc1ccc(F)cc1S(=O)(=O)N(C)CC(N)=O	0.08224%	19.22%	4.132%
Cc1cnn(CC2CCCN2C(=O)c2ccccc2-n2cnnn2)c1 (stereo not given)	-9.508%	26.39%	0%
O=C(O)c1cc2c(nc1-c1ccncc1)CCN(C1CCOC1)CC2 (stereo not given)	4.542%	-	3.226%
CCOc1ncccc1NC(=O)N1CCCN(C(=O)OC)CC1	4.064%	18.79%	4.956%
Cc1n[nH]c(C)c1CCc1nc(C2CC2)n[nH]1	1.27%	8.369%	11.76%
Cc1cccc(C(=O)Nc2cccc3c2C(=O)NC3)n1	-2.621%	-5.179%	-0.5525%
CCN(C(C)=O)C1CCN(c2nccc(C3CCCC3)n2)C1 (stereo not given)	-0.3636%	35.31%	-1.935%
CC(C)NC(=O)N1CCN2C(=O)N(Cc3ccc(F)cc3)C[C@H]2C1	5.648%	-	8.911%
CC(O)CN1CCC(CNCc2cccc(Br)c2)CC1 (stereo not given)	-3.052%	61.22%	5.263%
O=C(O)C(F)(F)F.[H][C@@]12CN(C(=O)COC)C[C@]1([H])C(=O)N(Cc1csc(C)n1)C2	-	12.32%	-
COc1ccccc1NC(=O)NCCCC(=O)Nc1cn[nH]c1	6.762%	3.109%	3.175%
O=C(Cn1ccc2ccccc21)NCc1ccc(C(=O)O)cc1	0.9534%	22.69%	-2.174%
Cn1cnn(Cc2ccccc2F)c1=O	3.666%	7.891%	8.824%
O=C(O)C(F)(F)F.[H][C@]12C[C@H](C(=O)NC)N(S(C)(=O)=O)[C@@]1([H])CN(C(=O)c1ccncc1)C2	-	13.26%	-
CCN(C)c1ccc(C(=O)NCCCc2ccccn2)cn1	-5.68%	-4.273%	3.933%
CNc1ccnc(N2CC[C@@](O)(C3CCOCC3)[C@H](C)C2)n1	-2.545%	13.29%	0.6452%
O=C1CO[C@@H]2CN(CC3CCOCC3)C[C@H]2N1Cc1ccncc1	4.888%	-	12.06%
CN1CCOC(CN(C(=O)CN2CCCC2=O)c2nccs2)C1 (stereo not given)	11.29%	7.909%	-0.5814%
Cc1noc(C)c1-c1nc(NCCN(C)C)ncc1-c1cnccn1	-1.797%	4.538% & 12.97%	0%
O=C(N[C@@H]1CCNC[C@H]1O)c1cc(F)cc(Cl)c1	2.803%	8.878%	-4.167%
CS(=O)(=O)c1ccc(NC(=O)CSC(F)(F)F)cn1	-3.58%	-15.19%	4.762%

The first 5 entries again:

{"compound": "CCN(C)C[C@@H]1CN(S(=O)(=O)c2ccc(OC)cc2)C[C@@H]1CO", "MtTrpRS": 6.101, "Leishmania in macrophages": -7.418, "TcHisRS": 5.202}
{"compound": "NC(=O)c1ccc(C2CCCN2C(=O)Cn2nc3ccccc3n2)s1", "stereo": "stereo not given", "MtTrpRS": -2.853, "Leishmania in macrophages": 6.014, "TcHisRS": 3.509}
{"compound": "Cc1ccc(C)c2c(O)cc(CN3CCNC(=O)C3C)nc12", "stereo": "stereo not given", "MtTrpRS": -1.417, "Leishmania in macrophages": 14.37, "TcHisRS": 3.03}
{"compound": "CC(c1cc(F)ccc1F)N(C)CCS(=O)(=O)CCC(N)=O", "stereo": "stereo not given", "MtTrpRS": -8.676, "Leishmania in macrophages": 15.72, "TcHisRS": 5.747}
{"compound": "O=C(NCc1ccccn1)NC1CCCN(c2ncccn2)C1", "stereo": "stereo not given", "MtTrpRS": 2.803, "Leishmania in macrophages": 6.365, "TcHisRS": -3.333}